Test results published in the supplement of paper PMC12819154, “High-throughput peptide-centric local stability assay extends protein–ligand identification to membrane proteins, tissues and bacteria” (Nature Structural & Molecular Biology, 2025).
The list shows a part of the results. Small differences around the control level are noise.

By UniProt entry, the sequences of proteins in these tests, tags left out. Where a name states a change or a piece, a line headed by the entry shows the natural chain unless it says otherwise.
UniProt P42892: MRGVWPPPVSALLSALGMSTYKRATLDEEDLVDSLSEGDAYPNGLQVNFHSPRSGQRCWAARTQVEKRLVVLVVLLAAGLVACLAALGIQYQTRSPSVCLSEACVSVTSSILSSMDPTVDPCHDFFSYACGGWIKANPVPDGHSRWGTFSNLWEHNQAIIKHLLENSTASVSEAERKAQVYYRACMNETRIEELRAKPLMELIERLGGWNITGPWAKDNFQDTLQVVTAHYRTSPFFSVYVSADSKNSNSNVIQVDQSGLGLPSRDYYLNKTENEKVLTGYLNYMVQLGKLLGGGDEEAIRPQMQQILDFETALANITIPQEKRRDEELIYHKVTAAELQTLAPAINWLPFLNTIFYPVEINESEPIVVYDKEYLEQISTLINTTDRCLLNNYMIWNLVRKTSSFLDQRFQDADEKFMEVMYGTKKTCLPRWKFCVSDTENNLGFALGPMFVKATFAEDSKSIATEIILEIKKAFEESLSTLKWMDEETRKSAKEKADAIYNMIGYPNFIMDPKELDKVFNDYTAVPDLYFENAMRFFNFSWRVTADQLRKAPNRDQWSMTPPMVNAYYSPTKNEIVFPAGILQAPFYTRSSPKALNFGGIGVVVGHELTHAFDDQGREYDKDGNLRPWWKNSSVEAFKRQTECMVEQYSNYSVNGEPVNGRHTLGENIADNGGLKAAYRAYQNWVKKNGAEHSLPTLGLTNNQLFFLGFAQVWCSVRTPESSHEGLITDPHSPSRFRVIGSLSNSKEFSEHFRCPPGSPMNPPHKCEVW
UniProt P41214: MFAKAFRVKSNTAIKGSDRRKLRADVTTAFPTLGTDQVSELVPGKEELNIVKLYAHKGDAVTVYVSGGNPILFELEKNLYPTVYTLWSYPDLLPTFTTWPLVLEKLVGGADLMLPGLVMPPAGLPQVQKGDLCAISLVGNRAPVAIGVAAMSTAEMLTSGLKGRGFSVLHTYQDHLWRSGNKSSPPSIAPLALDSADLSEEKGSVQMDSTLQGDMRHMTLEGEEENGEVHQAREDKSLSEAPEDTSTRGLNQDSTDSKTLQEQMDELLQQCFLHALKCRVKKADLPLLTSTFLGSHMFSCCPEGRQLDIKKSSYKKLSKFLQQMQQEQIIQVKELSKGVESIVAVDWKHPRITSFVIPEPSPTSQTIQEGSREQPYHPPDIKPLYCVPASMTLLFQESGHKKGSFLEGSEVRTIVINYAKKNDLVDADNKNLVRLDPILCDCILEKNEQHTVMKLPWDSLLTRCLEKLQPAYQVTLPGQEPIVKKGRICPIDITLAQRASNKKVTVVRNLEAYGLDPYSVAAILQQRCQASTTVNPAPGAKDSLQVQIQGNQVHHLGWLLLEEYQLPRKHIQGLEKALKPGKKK
UniProt P42025, whole entry: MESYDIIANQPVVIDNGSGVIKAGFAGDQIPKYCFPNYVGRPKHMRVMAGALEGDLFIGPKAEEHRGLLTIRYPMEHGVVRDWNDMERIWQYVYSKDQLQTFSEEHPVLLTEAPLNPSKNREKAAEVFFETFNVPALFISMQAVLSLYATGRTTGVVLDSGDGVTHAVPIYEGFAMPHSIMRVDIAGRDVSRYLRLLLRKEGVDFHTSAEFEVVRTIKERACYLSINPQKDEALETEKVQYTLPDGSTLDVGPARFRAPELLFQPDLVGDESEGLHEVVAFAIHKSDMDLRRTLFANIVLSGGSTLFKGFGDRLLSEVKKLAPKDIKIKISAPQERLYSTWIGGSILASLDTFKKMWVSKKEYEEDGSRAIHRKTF
UniProt P40855: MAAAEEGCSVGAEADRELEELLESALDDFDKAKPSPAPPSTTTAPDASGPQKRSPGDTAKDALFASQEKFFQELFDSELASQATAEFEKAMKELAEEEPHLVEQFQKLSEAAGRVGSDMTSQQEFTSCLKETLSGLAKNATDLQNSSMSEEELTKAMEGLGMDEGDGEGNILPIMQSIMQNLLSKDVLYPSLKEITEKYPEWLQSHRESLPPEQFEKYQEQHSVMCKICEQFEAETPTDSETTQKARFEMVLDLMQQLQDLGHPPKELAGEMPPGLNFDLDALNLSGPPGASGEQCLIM
UniProt P42858, whole entry: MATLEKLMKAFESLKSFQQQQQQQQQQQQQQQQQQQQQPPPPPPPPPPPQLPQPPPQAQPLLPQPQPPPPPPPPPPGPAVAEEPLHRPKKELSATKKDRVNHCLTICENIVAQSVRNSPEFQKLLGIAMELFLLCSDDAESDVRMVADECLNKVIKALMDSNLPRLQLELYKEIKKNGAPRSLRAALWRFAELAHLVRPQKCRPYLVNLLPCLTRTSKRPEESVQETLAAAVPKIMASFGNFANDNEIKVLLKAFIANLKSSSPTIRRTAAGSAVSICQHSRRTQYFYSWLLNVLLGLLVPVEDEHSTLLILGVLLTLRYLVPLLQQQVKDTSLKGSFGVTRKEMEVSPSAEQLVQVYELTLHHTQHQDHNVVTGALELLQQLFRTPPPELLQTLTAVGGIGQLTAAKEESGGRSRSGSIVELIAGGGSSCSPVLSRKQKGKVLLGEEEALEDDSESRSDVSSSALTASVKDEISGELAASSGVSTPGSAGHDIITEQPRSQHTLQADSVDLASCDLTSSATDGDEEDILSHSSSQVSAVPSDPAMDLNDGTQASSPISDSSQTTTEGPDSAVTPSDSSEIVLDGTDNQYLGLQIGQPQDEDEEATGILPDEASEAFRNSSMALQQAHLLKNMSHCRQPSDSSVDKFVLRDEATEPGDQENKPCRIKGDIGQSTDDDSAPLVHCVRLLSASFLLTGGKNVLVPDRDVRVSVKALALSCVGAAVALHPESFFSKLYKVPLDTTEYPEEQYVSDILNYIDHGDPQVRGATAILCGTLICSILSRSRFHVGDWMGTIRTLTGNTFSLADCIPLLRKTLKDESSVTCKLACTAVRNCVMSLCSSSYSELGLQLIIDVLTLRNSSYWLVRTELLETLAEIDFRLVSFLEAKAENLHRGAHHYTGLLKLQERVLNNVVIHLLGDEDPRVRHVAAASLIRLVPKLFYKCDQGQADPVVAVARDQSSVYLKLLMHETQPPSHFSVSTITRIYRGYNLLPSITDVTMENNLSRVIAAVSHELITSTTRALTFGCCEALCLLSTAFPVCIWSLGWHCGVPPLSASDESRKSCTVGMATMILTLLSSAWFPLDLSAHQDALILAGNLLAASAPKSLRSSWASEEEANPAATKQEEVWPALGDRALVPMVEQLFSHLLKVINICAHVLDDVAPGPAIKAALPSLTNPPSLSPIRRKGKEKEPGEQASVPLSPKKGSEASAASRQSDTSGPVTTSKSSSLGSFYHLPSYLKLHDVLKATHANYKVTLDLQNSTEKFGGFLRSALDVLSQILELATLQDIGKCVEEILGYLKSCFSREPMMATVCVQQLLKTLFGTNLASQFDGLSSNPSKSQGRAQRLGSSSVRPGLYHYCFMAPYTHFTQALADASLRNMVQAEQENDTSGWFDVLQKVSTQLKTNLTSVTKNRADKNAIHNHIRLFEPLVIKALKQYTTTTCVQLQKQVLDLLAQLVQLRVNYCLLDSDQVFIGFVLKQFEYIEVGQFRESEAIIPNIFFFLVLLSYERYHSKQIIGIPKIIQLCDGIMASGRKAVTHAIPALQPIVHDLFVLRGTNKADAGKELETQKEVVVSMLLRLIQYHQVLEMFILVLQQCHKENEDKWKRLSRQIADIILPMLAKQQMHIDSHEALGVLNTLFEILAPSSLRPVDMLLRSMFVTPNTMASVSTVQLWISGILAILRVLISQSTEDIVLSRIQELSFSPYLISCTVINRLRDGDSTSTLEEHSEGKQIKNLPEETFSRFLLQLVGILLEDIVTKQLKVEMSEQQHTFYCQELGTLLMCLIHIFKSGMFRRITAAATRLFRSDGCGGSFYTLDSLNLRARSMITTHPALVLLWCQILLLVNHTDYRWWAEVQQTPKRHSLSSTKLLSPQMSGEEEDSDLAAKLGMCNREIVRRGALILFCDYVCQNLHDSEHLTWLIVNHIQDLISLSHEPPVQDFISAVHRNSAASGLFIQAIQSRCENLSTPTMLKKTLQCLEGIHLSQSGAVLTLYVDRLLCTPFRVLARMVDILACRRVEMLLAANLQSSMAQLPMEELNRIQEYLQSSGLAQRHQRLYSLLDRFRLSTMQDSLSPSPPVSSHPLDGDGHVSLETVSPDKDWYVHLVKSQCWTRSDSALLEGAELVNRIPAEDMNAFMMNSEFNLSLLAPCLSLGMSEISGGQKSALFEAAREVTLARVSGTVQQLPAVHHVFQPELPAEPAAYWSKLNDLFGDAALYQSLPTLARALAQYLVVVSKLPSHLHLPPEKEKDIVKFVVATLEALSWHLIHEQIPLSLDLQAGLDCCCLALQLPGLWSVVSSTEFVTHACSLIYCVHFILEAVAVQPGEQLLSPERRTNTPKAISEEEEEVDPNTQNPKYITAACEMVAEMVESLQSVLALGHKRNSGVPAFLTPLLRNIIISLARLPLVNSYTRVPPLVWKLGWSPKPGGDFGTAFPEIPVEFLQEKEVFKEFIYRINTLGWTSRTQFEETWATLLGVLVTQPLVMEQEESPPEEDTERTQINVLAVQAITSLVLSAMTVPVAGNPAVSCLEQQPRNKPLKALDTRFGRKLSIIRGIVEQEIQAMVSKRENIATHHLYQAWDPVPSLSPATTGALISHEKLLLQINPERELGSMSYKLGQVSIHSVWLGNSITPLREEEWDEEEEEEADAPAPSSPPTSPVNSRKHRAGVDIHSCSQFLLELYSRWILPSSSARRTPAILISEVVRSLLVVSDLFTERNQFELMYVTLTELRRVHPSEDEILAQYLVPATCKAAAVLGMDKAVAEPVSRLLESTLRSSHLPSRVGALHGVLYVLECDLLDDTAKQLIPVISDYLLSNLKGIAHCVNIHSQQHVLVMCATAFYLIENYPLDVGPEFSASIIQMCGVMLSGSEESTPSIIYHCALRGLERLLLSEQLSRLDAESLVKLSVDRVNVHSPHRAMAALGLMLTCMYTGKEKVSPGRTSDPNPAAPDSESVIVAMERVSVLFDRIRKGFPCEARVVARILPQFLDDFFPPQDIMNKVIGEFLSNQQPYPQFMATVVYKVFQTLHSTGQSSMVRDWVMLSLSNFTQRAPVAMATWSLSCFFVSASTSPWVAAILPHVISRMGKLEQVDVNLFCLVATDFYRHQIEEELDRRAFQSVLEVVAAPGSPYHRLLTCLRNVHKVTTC
UniProt P28290: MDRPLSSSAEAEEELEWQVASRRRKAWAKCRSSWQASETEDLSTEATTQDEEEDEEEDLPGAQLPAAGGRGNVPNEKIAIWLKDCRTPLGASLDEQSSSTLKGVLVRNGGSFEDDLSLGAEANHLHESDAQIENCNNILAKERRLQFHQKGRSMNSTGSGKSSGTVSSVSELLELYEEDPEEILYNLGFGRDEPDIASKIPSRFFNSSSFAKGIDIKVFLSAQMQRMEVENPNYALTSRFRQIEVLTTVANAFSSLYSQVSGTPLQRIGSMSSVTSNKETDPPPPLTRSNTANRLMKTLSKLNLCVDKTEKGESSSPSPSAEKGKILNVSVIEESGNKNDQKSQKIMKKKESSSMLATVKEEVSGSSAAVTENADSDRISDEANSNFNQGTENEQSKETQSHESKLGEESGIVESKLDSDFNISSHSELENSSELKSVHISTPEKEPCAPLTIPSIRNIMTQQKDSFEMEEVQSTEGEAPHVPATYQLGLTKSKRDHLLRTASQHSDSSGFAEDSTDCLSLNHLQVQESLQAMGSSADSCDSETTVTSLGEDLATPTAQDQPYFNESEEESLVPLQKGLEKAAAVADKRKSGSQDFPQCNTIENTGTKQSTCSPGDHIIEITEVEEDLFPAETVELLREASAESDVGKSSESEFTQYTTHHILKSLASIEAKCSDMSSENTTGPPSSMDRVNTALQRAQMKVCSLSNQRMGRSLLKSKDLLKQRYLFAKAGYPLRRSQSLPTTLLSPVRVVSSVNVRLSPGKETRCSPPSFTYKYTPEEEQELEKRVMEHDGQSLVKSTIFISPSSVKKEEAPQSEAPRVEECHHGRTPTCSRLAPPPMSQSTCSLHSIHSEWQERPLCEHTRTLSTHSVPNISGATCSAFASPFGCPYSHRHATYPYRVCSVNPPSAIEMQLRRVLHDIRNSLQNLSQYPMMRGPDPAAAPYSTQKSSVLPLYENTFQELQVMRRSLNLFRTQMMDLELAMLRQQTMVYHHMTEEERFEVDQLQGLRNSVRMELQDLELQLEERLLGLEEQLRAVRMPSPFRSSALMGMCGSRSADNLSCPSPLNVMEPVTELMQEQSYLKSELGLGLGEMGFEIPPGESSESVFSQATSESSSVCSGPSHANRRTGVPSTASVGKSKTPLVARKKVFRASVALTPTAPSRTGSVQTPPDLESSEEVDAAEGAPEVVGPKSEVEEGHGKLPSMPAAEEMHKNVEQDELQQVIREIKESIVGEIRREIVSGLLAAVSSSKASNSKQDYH

The targets below were run with CN[C@@H]1C[C@H]2O[C@@](C)([C@@H]1OC)n1c3ccccc3c3c4c(c5c6ccccc6n2c5c31)C(=O)NC4 [staurosporine] (assay: log2 fold change of tryptic peptide abundance, ligand vs vehicle (limited proteolysis) (log2 ratio); higher = more trypsin-susceptible (destabilized)). Details: ligand concentration: 20 uM; sample: K562 cleared lysate; digestion: 4 min, 22 C (HT-PELSA RT4min, Orbitrap Astral).
For “SLC7A1 (peptide sequence: VLLNIGQQMLRR, peptide start residue: 5) (UniProt P30825)”, the log2 fold change was -0.359. With “RPL35 (peptide sequence: KKEELLK, peptide start residue: 13) (UniProt P42766)” the log2 fold change was 0.0943. With “PAFAH1B1 (peptide sequence: KWTSVIR, peptide start residue: 54) (UniProt P43034)” the log2 fold change was 0.35. “STX2 (peptide sequence: NVMNATDYVEHAKEETKK, peptide start residue: 235) (UniProt P32856)” gave a log2 fold change of 0.299. Target “ECE1 (peptide sequence: HTLGENIADNGGLK, peptide start residue: 663) (UniProt P42892)” has a log2 fold change of 0.416. Target “SREBF1 (peptide sequence: TAHNAIEKR, peptide start residue: 326) (UniProt P36956)” has a log2 fold change of 0.433. Target “HPCAL1 (peptide sequence: MPEDESTPEKR, peptide start residue: 138) (UniProt P37235)” has a log2 fold change of -0.134. “BRCA1 (peptide sequence: NLLEENFEEHSMSPER, peptide start residue: 997) (UniProt P38398)” showed a log2 fold change of 0.317. “GDI1 (peptide sequence: RKQNDVFGEAEQ, peptide start residue: 436) (UniProt P31150)” gave a log2 fold change of -0.123. Target “PBX2 (peptide sequence: TAVSVTQGGHSR, peptide start residue: 320) (UniProt P40425)” has a log2 fold change of 0.194. Work on “UniProt P42285 (peptide sequence: VKNSEEQYNK, peptide start residue: 605)” yielded a log2 fold change of 0.306. “EVI2B (peptide sequence: STLLADDLEIK, peptide start residue: 280) (UniProt P34910)” was tested, and the log2 fold change was -0.209. Work on “TEAD1 (peptide sequence: ALQHMAAMSSAQIVSATAIHNK, peptide start residue: 118) (UniProt P28347)” yielded a log2 fold change of 0.0973. “CDC27 (peptide sequence: ASVLFANEKYK, peptide start residue: 710) (UniProt P30260)” showed a log2 fold change of 0.723. Work on “SHC1 (peptide sequence: KQMPPPPPCPGR, peptide start residue: 408) (UniProt P29353)” yielded a log2 fold change of -0.466. In the case of “UBA7 (peptide sequence: LLDEELYSR, peptide start residue: 9) (UniProt P41226)”, the log2 fold change is reported as -0.0267. For “ALDH4A1 (peptide sequence: SSPSLTILAGGK, peptide start residue: 409) (UniProt P30038)”, the log2 fold change was 0.331. “UniProt P41214 (peptide sequence: GSFLEGSEVR, peptide start residue: 403)” gave a log2 fold change of -0.315. “NAMPT (peptide sequence: NAQLNIELEAAHH, peptide start residue: 479) (UniProt P43490)” showed a log2 fold change of -0.413. In the case of “NF2 (peptide sequence: LSMEIEKEKVEYMEK, peptide start residue: 517) (UniProt P35240)”, the log2 fold change is reported as 0.471. In the case of “MAGEA1 (peptide sequence: FFFPSLR, peptide start residue: 292) (UniProt P43355)”, the log2 fold change is reported as 0.106. “DLST (peptide sequence: LGFMSAFVK, peptide start residue: 278) (UniProt P36957)” gave a log2 fold change of -0.224. “GTF2H1 (peptide sequence: TIALNLKK, peptide start residue: 371) (UniProt P32780)” was tested, and the log2 fold change was 0.232. Work on “PHKA2 (peptide sequence: RFSADEQFFSVGQAASSSAHSSK, peptide start residue: 1013) (UniProt P46019)” yielded a log2 fold change of 0.53. For “DEK (peptide sequence: LLASANLEEVTMK, peptide start residue: 332) (UniProt P35659)”, the log2 fold change was -0.622. “STAT6 (peptide sequence: AVMEQFR, peptide start residue: 109) (UniProt P42226)” showed a log2 fold change of 0.208. “MCM7 (peptide sequence: IRGNINICLMGDPGVAK, peptide start residue: 371) (UniProt P33993)” showed a log2 fold change of -0.225. Target “ACTR1B (peptide sequence: RTLFANIVLSGGSTLFK, peptide start residue: 292) (UniProt P42025)” has a log2 fold change of -0.531. For “UniProt P41002 (peptide sequence: AVVHESLR, peptide start residue: 166)”, the log2 fold change was 0.408. In the case of “UniProt P40855 (peptide sequence: DVLYPSLK, peptide start residue: 186)”, the log2 fold change is reported as 0.329. For “HTT (peptide sequence: GIVEQEIQAMVSKR, peptide start residue: 2552) (UniProt P42858)”, the log2 fold change was 0.39. With “PRDX3 (peptide sequence: HLSVNDLPVGR, peptide start residue: 197) (UniProt P30048)” the log2 fold change was 0.143. “ABL2 (peptide sequence: HTPADVQLIGTDSQGNK, peptide start residue: 941) (UniProt P42684)” gave a log2 fold change of -0.28. Target “CCND2 (peptide sequence: SHLQLLGAVCMFLASK, peptide start residue: 96) (UniProt P30279)” has a log2 fold change of -0.188. For “UniProt P41279 (peptide sequence: VYLAQDIK, peptide start residue: 152)”, the log2 fold change was 0.256. Target “UniProt P28290 (peptide sequence: SSALMGMCGSR, peptide start residue: 1044)” has a log2 fold change of 0.382. Work on “COPB2 (peptide sequence: TRVAHFLEK, peptide start residue: 619) (UniProt P35606)” yielded a log2 fold change of -0.528. With “PNPLA4 (peptide sequence: TVTISPFSGR, peptide start residue: 178) (UniProt P41247)” the log2 fold change was -0.26. For “STAT3 (peptide sequence: LLQTAATAAQQGGQANHPTAAVVTEK, peptide start residue: 115) (UniProt P40763)”, the log2 fold change was 0.375.
